Assay: soluble on expression in E. coli; label from the status in PepcDB or PDB records

Row | Sequence | soluble on expression in E. coli
1 | MSNRLPVTVLSGFLGAGKSTLLNHVLRNRDNLRVAVIVNDMSEINIDASEVQRNVSLNRAEEKLVEMSNGCICCTLREDLLEEVARLAEEGRFDYLLIESTGISEPLPVAETFTFRDEQGRSLSDMARLDTMVTVVDGLNFLRDYQAADSLASRGETLGEEDERSISDLLIEQVEFADVLLLSKIDLISQHEREELIAILRSLNARAQIVPMVMGQVPLARILNTRLFDFDQAAQAPGWLQELRGEHVPETEEYGIAAMTWQARRPLHPQRFYDFIHKDWENGRLLRSKGFFWLASKYQEAGSWSQAGGMMRHGLAGRWWRFVPREQWPQDVDNTNAILKHWTADTGDCRQELVFIGQNIDVEKLSTALDACLLTDQEMGLGHMGWLRLPDPFGPWHEEAAA | not soluble
2 | MGHHHHHHSHGVKIVPQGYQWTVERFGRYTKTLQPGLSLVVPFMDRIGRKINMMEQVLDIPSQEVISKDNANVTIDAVCFIQVIDAPRAAYEVSNLELAIINLTMTNIRTVLGSMELDEMLSQRDSINSRLLRIVDEATNPWGIKVTRIEIRDVRPPAELISSMNAQMKAERTKRAYILEAEGIR | not soluble
3 | MSSPRRTRIMFDTSSDDSQSDEKIDDFICRSSPQRQSKESDDQEDSVVDESMKSVNSPIVNTPSSTASHCTNSFATSTPKSKSNASTRLGSSYGSSRSSSQNHESHDRSRSFVQYDENKPLTPISKKLAESTDLRSKAQLRERLLRKSLKQNAEDSSPTRAASGGGWGSSADVKKSPEVSTGLFETALSPIAKSDRRSSEYNSSTFLNVQKVATSTAINDIGGREEIVDESFPAPRTTAKQDDSDIIEVTPEKVVSNEKRKSGIAINLDDSDIIDVTPVKTTSSRPPEPQRPRLPTSPINSEYAKLSYKELLAKKNKVMGLISLSLDLPDGGRRVIKQFQELDDEVERRKEMGLAEEIVDDDEDDEIFVIEDDEPSHRQVAPKFPSGSVMTQNGLLPKRHIVDPLKAPQPDFNAMLEKDNKKMMSGKMTDEKYKRIQLVSDRVVRQLAEATHTIPDETELTDTPKGFKLELMPHQKAGLTWMRWRETQPQPGGILADDMGLGKTLSMISLIAHQKAARRARREDGNDDKDKEKRKVVKEQGLIPSNGTLIVAPASLIHQWDAEIDRRLDDSVLSTYMFHGTKKQRDIDARRLARYDVVITTFNLIANELIEKIRTKSKADDSSDGESDSNHTGIRRAVGKDDSVLAQICWSRVILDEAHTIKNRQSLASKAVCRLSAFSRWCLSGTPIHNNLWDLYSLVRFLRIRPFSDDKYWKESIMPMKPIMADRVNLLTKNLLLRRTKDQTCAVTNQKLVQLPPKNVEVHELELDGDEAQAYEIMMEAAKKFVKKLLQDSNDMKNHGFIPRRNRRAGKEGEVQNPFNFGPRDLAAGSNFEKMSCVLMLLLRLRQACVHFNITKTGVDMDAFSLIGGDNAEEANVDDLNELLEKTMNMTLGNGDNEERDKPRATTRIFDPDYLSCKIKNTLEIVENIMEKKEKVVIVSQWTSVLNLIEIHIKSSGFKYTSITGQVLVKDRQERVDSFNREKGGARVMLLSLAAGGVGLNLTGGNHLVMVDLHWNPALEQQAFDRIYRMGQKKDVFIHRLVTKGTIEQRVVMLQKDKVALASSVLDGNATRKMNKLTTADIKMLFGLNEK | soluble
4 | MDQDFDLDEGAGQFNLKTTLMMFTSNDSQNDDGIWSPGSPYQALEDPSFLDKHFVSDPDRYTADELYSALEKMDGKSDLIGMDDMDNDNCYSLSPPDSGSLPISPASTSPSSYHSSGGEDLMDCYPSIDILQQASEELLYSKDDDYEICSSGPLLAYTNANSVATSAVHQNQQQQQRRLNQAGFPHQNSNGLVRFKSSQPRVLNPASISLNAPSSSFNPQSTSSTPATSSSSSSSTNGGFVKSSTGERRKYPPLRLDEEEIKLCKKEGICLPDFFPLTKAEERDLKRIRRKIRNKRSAQTSRKRKQDYIEQLEDRVSESTKENQALKQQIERLSSENQSVISQLKKLQAQLGQNAKRTTQAGRCLAVFMLSACLLVSPQLSPLGNQDNQKVLECIEEACQPSATSMNSANSAQRAIAGVTAPSVVIPSGGPVMVSTNANRQMNRNAVLNHHNNSKYPASGNQNHHPIALEDLNHPPPTLQPKQSYQQQHQPSMYRRSDETIAMAMAKIGARKGSSTSSSSASSVASSTSTSSATSPIYRTSRTLGAFEDQCDASSDDSNCANMPSLVPMKMSAQPPKRKIVTMNGQPRVTYRAVPASSVNVEQAQYYKVPQQKVQYVTMDRPIKYEVLNDYIKMEEESTIRLPNSWSTAGPRLHPQVNASSRTVRPLTVATPVHYNGPSAKKIKTQMF | not soluble
5 | MTKKRHLFTSESVTEGHPDKICDQISDSILDAILSKDANARVACETTVTTGLVLVAGEITTSTYVDIPKIVRETIQGIGYTRAKYGFDAETCAVLTSIDEQSADIAMGVDQALEAREGQMTDAEIEAIGAGDQGLMFGFACNETQELMPLPISLAHKLARRLTEVRKNDTLSYLRPDGKTQVTVEYDENGKPVRVDTIVISTQHHPDVTWEEIDRDLKEHVIKAVVPAELIDGETKFFINPTGRFVIGGPQGDAGLTGRKIIVDTYGGYARHGGGAFSGKDATKVDRSAAYAARYVAKNIVAAGLAEKAEVQLAYAIGVAQPVSISVDTFGTGKVSEDVLVELVRNNFDLRPAGIIKMLDLRRPIYKQTAAYGHFGRTDVDLSWERTDKAAALKEQAGL | not soluble
6 | MASPRTRRVLKELRPCDDNNFCFECEANNPQWVSVSYGIWICLECSGIHRSLGVHLSFVRSVTMDKWKDIELAKMKAGGNRKFAEFLQSQPDYKEKWTIQEKYNSRAAALFRDKVACEAEGREWSQSTSPAANYVPPTLGGMSSQSKPTNKSSGNSSLGSYYGGNSSYSQSTGDGAYSTQDSNSKYQGFGNTGYVPNQSNSGDDLLAGAMSGLSMGWSMLSKGASQAAAMAKDVGIQAQQKASQLSENVSQNNSLFGGVANKASEVGTKSWDGLSSFVKSPSLNAFSGILAKTGYEDFGGGGGGMSGSSSQNEFNDWLKQSNLPRGTTEGGDHLSNEELKPTEPVETKKKKERSVKPVQSKEKVTAENVEDDDSSSTITQFESSFNKPKTTAPRLAPVAAAPPKKKEEKAKGWDDDAWDLLNQ | not soluble
7 | GDVEKGKKIFIMKCSQCHTVEKGGKHKTGPNLHGLFGRKTGQAPGYSYTAANKNKGIIWGEDTLMEYLENPKKYIPGTKMIFVGIKKKEERADLIAYLKKATNE | soluble
8 | MCMPDMSQLKELPFSTLQFYATAPYPSYLPGRQARSQVAAPGHLINTGTYSQLVEQGFRRSGLFTYRPHCDNCHACVPVRVDAARFEPNRTQRRAWRSHQALRAFVAELAWSPEHYDLYTRYQQGRHPGGGMDEDSRTQYAQFLLTTRVNTRLVKFRTPQGQLAMISIIDVLDDGLSSVYTFYDPDMAGSLGTYSILWQIEQCRTLDLPWLYLGYWIADSRKMAYKANFRPLQMHVDGAWRETPPLEHHHHHH | not soluble
9 | MAEKQPMLSFAKVVSGQAEDASSPSQQVQHTQDSSHSSTQNENSQPEKQAHPPHNRREKENVGGRSERPREEAEAAAAAAQKEQKSETAADQFIITATPVVQKSSAPIPEKKRAVEPTPKQAAPIKEKSKSRESKKEPWKTSTAPAATAPVTETVTVAATQDWPTLAKAELNGHVSPSNSDDNNESSSNSQHKTGGKMTKNSWKKVDISVDYGSKGKGAPRGNGGEKGTRRSANDEAVRRRSGEEDSASGDEQQYWSRSKDNKSPINEMSSDRVVDSGSNGIYYQQGGTHGWKKKVNNKAGSDMPTPPNSTSPHQSESNSPEHLPKDKAPIMNGNAKNAPAANRNGNNTSTAKTGDYWHKNGGERKEDKSQPKAYYQRNDRFQARANPHAPPKLTAAQRKERGPLPRWEDIEAGDDNFDYMTLMEAQYSQYYGAPQQFEHQLDPHQASILIQQAQQHMASFAPFRPPMPMLSPHLMSPPLDRDGGVTSPVSNGEPINTAIPFAPIYNPPTAPRPVTDDTLKEYVRKQIEYYFSEENLQKDFFLRRKMGPEGYLPVALIASFPRVRSLTEDYSLILEALKDSTKVDMSPDGLQIRAPVNPTIWPLMPTVSGADSLPGPSSQAPQQFRQNGPAATAAPVESQPQASSSKPQQPEEWEEFDNEISGGGGSAQTPKRPEKSKKAFLSAIDSEEIGDDVISKLIIMTPSRRTLDRTGDFSTRSQNQGEFNEEVEIGLRRYEEELWTVPQEKDIPTSKVSTISAEQFNEMRGNEDAKKTSDEPPEIPLPSGTQPTPDSVWTKKAKERAAASVTVPKSPMQRRESEEQKMNRFYPISKPTAPLDAKSPRKKKTRHSEKPPVEMPVAWVLGREDALPAAPIGIAASSSQVPANHPSISLLQEDRFVQNVYSTWRQACLKQRKSLGYDCAEMNTLYRFWSFFLRDNFNRNMYEEFRKLALEDAEIGSRYGIEALFRFYSYGLEKKFRPEIYKNFMKDVTTDVQKGELYGLEKLFAFLQRSKIAKQLVVDDYLTKELNKYKSTDDFRNLPQSTKNQNVCLQNSQMALDCIVFLSF | not soluble
10 | MAGAEGFQYRAVYPFRRERPEDLELLPGDLLVVSRVALQALGVADGGERCPHNVGWMPGFNERTRQRGDFPGTYVEFLGPVALARPGPRPRGPRPLPARPLDGSSESGHILPDLAEQFSPPDPAPPILVKLVEAIEQAELDSECYSKPELPATRTDWSLSDLEQWDRTALYDAVKGFLLALPAAVVTPEAAAEAYRALREVAGPVGLVLEPPTLPLHQALTLRFLLQHLGRVARRAPSPDTAVHALASAFGPLLLRIPPSGGEGDGSEPVPDFPVLLLERLVQEHVEEQDAAPPALPPKPSKAKPAPTALANGGSPPSLQDAEWYWGDISREEVNERLRDTPDGTFLVRDASSKIQGEYTLTLRKGGNNKLIKVFHRDGHYGFSEPLTFCSVVELISHYRHESLAQYNAKLDTRLLYPVSKYQQDQVVKEDSVEAVGAQLKVYHQQYQDKSREYDQLYEEYTRTSQELQMKRTAIEAFNETIKIFEEQGQTQEKCSKEYLERFRREGNEKEMQRILLNSERLKSRIAEIHESRTKLEQDLRAQASDNREIDKRMNSLKPDLMQLRKIRDQYLVWLTQKGARQRKINEWLGIKNETEDQYSLMEDEDALPHHEERTWYVGKINRTQAEEMLSGKRDGTFLIRESSQRGCYACSVVVDGDTKHCVIYRTATGFGFAEPYNLYGSLKELVLHYQHASLVQHNDALTVTLAHPVRAPGPGPPSAAR | soluble
11 | MSDRLGQITKGKDGKSKYSTLSLFDKYKGKSVDAIRSSVIPRHGLQSLGKVAAARRMPPPANLPSLKSENKGNDPNIVIVPKDGTGWANKQDQQDPKSSSATASQPPESLPQPGLQKSVSNLQKPTQSISQENTNSVPGGPKSWAQLNGKPVGHEGGLRGSSRLLSFSPEEFPTLKAAGGQDKAGKEKGVLDLSYGPGPSLRPQNVTSWREGGGRHIISATSLSTSPTELGSRNSSTGDGAPSSACTSDSKDPSLRPAQPVRKGASQFMGNVYHPPTYHDMLPAFMCSPKSSENQGTVERGSFPLPQLRLEPRVPFRQFQMNDQDWNYGARLVNMTFNE | soluble
12 | MPDYKAPLRDIRFVRDELLGYEAHYQSLPGAEDATPDMVNAILEEGAKFCEQVIAPLNRVGDLEGCTWSADGVKTPTGFKEAYQQFVEGGWPSLAHDVEHGGQGLPESLGLAISEMVGQANWSWGMYPGLSHGAMNTLHAHGTAEQQATYLTKLVSGEWTGTMCLTEPHCGTDLGMLRTKAEPQADGSYKVTGTKIFISAGEHDMADNIVHIVLARLPDAPQGTKGISLFIVPKFLPNAEGNAGERNAVSCGSIEHKMGIHGNATCVMNFDAATGFLIGPPNKGLNCMFTFMNTARLGTALQGLAHAEVGFQGGIAYARERLQMRSLTGPKAPEKPADPIIVHPDVRRMLLTMKAFAEGNRAMLYFAAKQVDIVQRSQDEEQKKAADSMLAFLTPIAKAFMTEVGFESANHGVQIFGGHGFIAEHGMEQNVRDSRISMLYEGTTGVQALDLLGRKVLMTQGEALKGFTKIVHKFCQANEANEAVKEFVAPLAQLNKEWGDLTMKVGMAAMKDREEVGAASVDYLMYSGYACLAYFWADMARLAAEKLAAGTGEEAFYKAKLQTARFYFQRILPRTRAHVAAMLSGANNLMEMAEEDFALGY | soluble

— the DeepSol protein solubility set
